In US11795510B2, “Identification of epigenomic reprogramming in cancer and uses thereof” (The Johns Hopkins University, priority 2016, dated 2023):

Tested on: A38Lg cells
Assay: RNA-seq of control (DMSO) and 6AN treated cells, differentially expressed genes
Assay type: cell-based, human
Method: RNAi experiments were performed with siRNA transfections (Oligofectamine, Life Technologies) using negative control siRNA (Sigma, SIC001) and pre-designed siRNA oligonucleotides against indicated genes in parallel (Sigma, PGD: SASI_Hs02 00334150, CDH2: SASI_Hs01_00153995, TOP2B: SASI_Hs02_00311874). siRNAs against mutant KRAS^G12V (CUACGCCAACAGCUCCAAC) (SEQ ID NO:1) were custom designed. Cells were incubated with siRNAs for 4 days after transfection and harvested. For drug treatments in 2-D, cells were grown to 70-80% confluency and treated for 3 days with 250 uM 6AN or DMSO negative control.
Tests for statistical significance (two-tailed students t-test) were performed on data collected from technical replicate (performed in parallel at the same time) or biological replicate (performed at different times) experiments as indicated in the figure legends using excel software for western blot densitometry, MTT assays, and tumor measurements. Whole genome bisulfite sequencing and RNA-seq were performed with HiSeq instruments (Illumina) as described in Hansen et al. (Increased methylation variation in epigenetic domains across cancer types. Nat Genet 43, 768-75 (2011)). ChIP assays were performed as previously described for fixed cells with sonication. For ChIP-qPCR, equal amounts of paired input/IP DNA were amplified by real-time PCR (Roche LightCycler96) and fold enrichments calculated. Primer sequences are listed in Supplementary Table 11. […] IP sequencing reads were normalized to their corresponding inputs. Sequencing procedures, bioinformatics methods including domain calls, and statistical analyses are described in detail within the supplementary methods section.
RNA-Seq data processing. 100 bp paired-end HiSeq2000 sequencing reads were aligned against human genome (hg19) by OSA (version 2.0.1) with default parameters. After alignment, only uniquely aligned reads were kept for further analysis. Gene annotation information was downloaded from ENSEMBL (ensembl.com, release 66). Reads count for each gene of all samples were estimated using HTSeq (huber.embl.de/users/anders/HTSeq/doc/overview.html) and then were used to identify differentially expressed (DE) genes using DESeq package. Genes with FDR<0.01 and fold-change>1.5 were considered DE genes.

In the case of `NC(=O)c1ccc(N)nc1` [6AN, 6-aminonicotinamide], the “share of recurrently over-expressed genes across distant metastatic subclones down-regulated by 6AN” value is reported as 29%, the “share of 6AN down-regulated genes from A38Lg that were over-expressed in this subclone vs. peritoneal subclone” value (A38Lg) is reported as 52% and the “share of 6AN up-regulated genes that matched DE genes that were repressed” value (A38Lg) is reported as 42%. The “6AN down-regulated genes from A38Lg that were over-expressed in this subclone / all 6AN down-regulated genes” value (A38Lg, gene counts) was 952/1832, the “6AN up-regulated genes that matched repressed DE genes / all 6AN up-regulated genes” value (A38Lg, gene counts) was 914/2122 and the “recurrently over-expressed genes down-regulated by 6AN / all recurrently over-expressed genes” value (gene counts) was 255/891.
